According to PubChem BioAssay AID2417 (National Center for Advancing Translational Sciences (NCATS), 2010):
About 4,300 (3.1%) of roughly 140,000 compounds were called active. Inconclusive means that the source gave no clear call. Such entries were picked first, then a sample of the others.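 Rule for the calls: active = readout at or below -70, meaning at least 70% loss of cells showing the perinucleolar compartment, a nuclear body marking cancer cells; inconclusive = readout between -30 and a set limit; inactive = the rest.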

Assay: High Content Assay for Compounds that inhibit the Assembly of the Perinucleolar Compartment;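 note: plate controls were DMSO wells for no effect and camptothecin positive control wells for full effect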
Details: PC3M PTB-GFP, PNC prevalence imaging, 16 h; at 10 µM; hits give low values
In short: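 PC3M cells stably expressing PTB-GFP, 750–1000 cells/well, treated 16 h at 37 °C with compound (23 nl of library stock), in duplicate. After paraformaldehyde fixation and Hoechst stain, imaged at 20x; PNC prevalence scored by image analysis.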

SMILES	activity change (PNC), negative = inhibition
CCOCCCNC(=O)c1c(N)n(-c2ccc(S(N)(=O)=O)cc2)c2nc3ccccc3nc12	inconclusive: -51.9%
Cc1ccc(CN2C(=O)CCC2C(=O)NCCN(CC(C)C)CC(C)C)cc1 (configuration not stated)	inactive: -25.2%
Cc1ccc2nc(-c3ccc(NC(=O)COC(=O)c4ccc(Br)o4)cc3)sc2c1	inconclusive: -46.5%
COc1ccc(-c2[nH]ncc2/C=N/NC(=O)c2ccc(Br)cc2)c(OC)c1	inconclusive: -33.4%
COc1ccc(N2CCN(C(=O)CNC(=O)Cn3c(C)cc4ccccc4c3=O)CC2)cc1	inconclusive: -61.3%
COC(=O)c1cn(NC(=O)c2ccc3c(c2)OCO3)c(=O)c2ccccc12	inconclusive: -32.4%
CCN(CC)c1ccc(NC(=O)c2ccccc2F)cc1	inconclusive: -30.6%
O=C(NCc1ccc(F)cc1)C1CCCN(S(=O)(=O)c2cccnc2)C1 (configuration not stated)	inactive: 41%
CCN(CC)c1ccc(/C=N/N2CCN(Cc3ccccc3)CC2)c(O)c1	inactive: 59.6%
C=CCNC(=O)c1ccccc1NC(=O)c1cccc2ccccc12	inconclusive: -32.2%
CC1Cc2cccc3c(O)c(C(=O)c4nn[nH]n4)c(=O)n1c23 (configuration not stated)	inconclusive: -36.4%
C/C(=N\OCC(=O)N/N=C/c1ccccc1O)c1cccs1	inactive: 0.559%
O=C(Nc1ccc(Cl)c([N+](=O)[O-])c1)c1ccc(NCCCN2CCOCC2)c([N+](=O)[O-])c1	inconclusive: -35%
COc1ccc(-c2cc(CNC(=O)CN3CCN(C)CC3)on2)cc1	inconclusive: -30.3%
CN(C)c1cccc(C(=O)Nc2cc(C(F)(F)F)ccc2-n2cnc3ccccc32)c1	inactive: -29.8%
COc1ccccc1/C=C(\NC(=O)c1ccc(OC)c(OC)c1)C(=O)Nc1cc([N+](=O)[O-])ccc1C	inactive: 36.4%
O=C(/C=C/c1ccc([N+](=O)[O-])cc1)Nc1cccnc1	inactive: 22.3%
CCOC(=O)c1sc2ncn(C(C)C(=O)OCC)c(=O)c2c1C (configuration not stated)	inconclusive: -35.4%
Cc1n[nH]c(=S)n1/N=C/c1ccccc1OCc1ccc(Cl)cc1	inconclusive: -33.4%

Some of the entries above, set out differently:
SMILES | activity change (PNC), negative = inhibition
CCN(CC)c1ccc(/C=N/N2CCN(Cc3ccccc3)CC2)c(O)c1 | inactive: 59.6%
C=CCNC(=O)c1ccccc1NC(=O)c1cccc2ccccc12 | inconclusive: -32.2%

Following part:

SMILES	activity change (PNC), negative = inhibition
Cc1cc(OCC(=O)NCc2nc(-c3ccccc3)no2)c(C)cc1Br	inconclusive: -30.1%
O=C(Cn1ccc2ccccc2c1=O)NCCC(=O)N1CCN(C2CCCCC2)CC1	inconclusive: -57.7%
Cc1cccc(-c2nnc(NC(=O)c3ccc(Cl)cc3)o2)c1	inconclusive: -48.3%
O=C(CSc1nnc(-c2ccccc2Br)o1)N1CCN(C(=O)c2ccco2)CC1	inactive: -0.583%
COc1cc(NC(=O)Cn2c(=O)n(-c3cccc(C)c3)c(=O)c3c(C)c(C)sc32)cc(OC)c1	inconclusive: -47.7%
COc1ccc(OC)c(-c2cnc(OC(C)(C)C)nc2OC(C)(C)C)c1	inactive: 17.6%
CN1CCN(S(=O)(=O)c2ccc(NC(=O)c3ccc(F)cc3)cc2)CC1	inconclusive: -56.6%
CCN1CCc2nc(NC(=O)CC(c3ccccc3)c3ccccc3)sc2C1	inconclusive: -31.3%
Cc1ccc(CNc2nc3ccccc3n3nnnc23)cc1	inconclusive: -48.9%
C/C(=N\NC(=S)NC1CCCCC1)c1ccccc1	active: -100%
Cc1ccc(OCC(=O)Nc2ccc3c(c2)OC(F)(F)O3)c([N+](=O)[O-])n1	inconclusive: -51.9%
CSc1cccc(NC(=O)CCC(=O)O)c1	inactive: 2.75%
Cc1ccccc1-n1c(=O)cc(N2CCc3ccccc3C2)[nH]c1=O	inconclusive: -57.9%
COc1ccc(-c2cc(C#N)nc(Oc3ccc(Cl)cc3)n2)cc1	inconclusive: -45%
CC(C)CCNC(=O)Nc1ccc2c(c1)N(C)C(=O)CS2	inactive: 46.7%
CCOC(=O)C1CCCN(C(=O)c2sc3nc(-c4ccc(F)cc4)cn3c2C)C1 (configuration not stated)	inactive: -1.79%
COc1ccc(O)c(C2NC(CC(C)C)(C(=O)O)C3C(=O)N(Cc4ccccc4)C(=O)C23)c1 (configuration not stated)	inconclusive: -35.1%
CCCC(=O)Nc1nnc(CC(=O)N2CCCC2)s1	inconclusive: -67.3%
CCCCN(C)Cc1c(C)[nH]c2c(Cl)cccc2c1=O	inconclusive: -48.4%

SMILES	activity change (PNC), negative = inhibition
CCc1ccccc1NC(=O)CN(C)Cc1nc(N)nc(Nc2ccccc2C)n1	inconclusive: -31.9%
CCCCCCS(=O)Cc1ccccc1 (configuration not stated)	inconclusive: -53.5%
CCN(CC(=O)NCc1ccccn1)S(=O)(=O)c1ccc(Cl)cc1	inconclusive: -66.8%
CCOC(=O)c1[nH]c2ccccc2c1NC(=O)NC1CCCCC1	inconclusive: -62.8%
c1ccc(C2=Nn3c(nnc3-c3n[nH]c4c3CCC4)SC2)cc1	inconclusive: -47.8%
COC(=O)c1c(NC(=O)CCc2ccc(C)o2)sc(C)c1C	inactive: 35.3%
COc1ccc(N2C(=O)C(Cl)=C(N3CCCC(C)C3)C2=O)cc1 (configuration not stated)	inconclusive: -54.2%
O=C(O)C1CC=CCC1C(=O)Nc1ccccc1 (configuration not stated)	inactive: -20%
CC1CCCN(C(=O)CCc2ccccc2)C1 (configuration not stated)	active: -97%
c1cncc(Nc2nc(-c3cccs3)cs2)c1	inconclusive: -36.7%
O=C(CCCc1c[nH]c2ccccc12)N1CCCCCC1	inconclusive: -31%
O=C1C2C3C=CC(C4CC34)C2C(=O)N1/N=C/c1ccc([N+](=O)[O-])s1 (configuration not stated)	inconclusive: -41.4%
CC(NC(=O)C1CCCC1)c1ccc2c(c1)OCCO2 (configuration not stated)	inactive: -7.9%
Cc1noc(C)c1CSCC(=O)N1CCN(c2ccc([N+](=O)[O-])cc2)CC1	inactive: 31.5%
CC(=O)Nc1sc(NC(=O)c2ccc(C)cc2)nc1-c1cccs1	inconclusive: -33.9%
O=C(Cc1nn[nH]n1)c1ccccc1O	inconclusive: -59.4%
COCC(=O)N(Cc1cc2cc(OC)ccc2[nH]c1=O)c1ccccc1	inconclusive: -73%
COc1ccc(N2CCN(C(=O)c3ccc(C(C)(C)C)cc3)CC2)cc1	inconclusive: -66.3%
Cn1c(SCC(=O)NC(=O)c2cccc([N+](=O)[O-])c2)nnc1-c1ccc(F)cc1	inconclusive: -49.2%
